Measurements taken from article doi:10.1101/830018 (bioRxiv, 2019).
Results are given in words; binding and its absence hold for the method and conditions named. Binding can be weak; no strength is given.

By UniProt entry, the sequences of proteins in these tests, tags left out. Where a name states a change or a piece, a line headed by the entry shows the natural chain unless it says otherwise.
UniProt Q64385: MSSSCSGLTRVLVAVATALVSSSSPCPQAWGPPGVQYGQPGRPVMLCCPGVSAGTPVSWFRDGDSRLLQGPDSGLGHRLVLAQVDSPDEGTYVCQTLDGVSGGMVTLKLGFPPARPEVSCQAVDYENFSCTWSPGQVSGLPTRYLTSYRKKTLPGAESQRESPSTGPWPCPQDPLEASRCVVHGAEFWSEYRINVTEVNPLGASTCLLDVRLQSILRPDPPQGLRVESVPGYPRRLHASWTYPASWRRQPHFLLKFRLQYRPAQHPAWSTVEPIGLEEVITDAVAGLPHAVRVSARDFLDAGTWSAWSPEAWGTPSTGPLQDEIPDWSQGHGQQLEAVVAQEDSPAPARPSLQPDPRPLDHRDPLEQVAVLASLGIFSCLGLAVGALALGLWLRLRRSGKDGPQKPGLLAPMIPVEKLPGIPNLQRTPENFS

Target: mouse interleukin 11 receptor alpha chain 1 (mouse) (UniProt Q64385)
Experiment: ELISA

B1: biotinylated rmIL11 (ligand, UniProt P47873 22-199)
chain: PGPPAGSPRVSSDPRADLDSAVLLTRSLLADTRQLAAQMRDKFPADGDHSLDSLPTLAMSAGTLGSLQLPGVLTRLRVDLMSYLRHVQWLRRAGGPSLKTLEPELGALQARLERLLRRLQLLMSRLALPQAAPDQPVIPLGPPASAWGSIRAAHAILGGLHLTLDWAVRGLLLLKTRL
modifications: biotinylated (site not stated)
For B1, the binding was “binds”.
